Measurements as given in the supplement of paper PMC8728848.
The list shows a part of the results.

Assays:
Assay in all cases: glycan array binding signal (z-score within array); higher = stronger binding
Settings in all cases: glycan notation: IUPAC condensed, linker removed
[1] = target: Gal(a1-3)Gal(b1-4)GlcNAc(b1-2)Man
Procedure, shortened: (§1)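 Columns mapping to the same glycan were averaged after glycan names were converted to IUPAC-condensed notation. The data come from 3228 arrays in the Consortium for Functional Glycomics database, limited to those with an available protein sequence. Binding is reported as a within-array Z-score averaged across arrays of one protein sequence and across linkers.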

[2] = target: Gal(a1-3)Gal(b1-4)GlcNAc(b1-2)Man(a1-3)[Gal(a1-3)Gal(b1-4)GlcNAc(b1-2)Man(a1-6)]Man(b1-4)GlcNAc(b1-4)GlcNAc
Procedure, shortened: as §1

[3] = target: Gal(a1-3)Gal(b1-4)GlcNAc(b1-3)GalNAc
Procedure, shortened: as §1

[4] = target: Gal(a1-3)Gal(b1-4)GlcNAc(b1-6)GalNAc
Procedure, shortened: as §1

[5] = target: Gal(a1-3)Gal(b1-4)[Fuc(a1-3)]GlcNAc
Procedure, shortened: as §1

[6] = target: Gal(a1-3)Gal(b1-4)[Fuc(a1-3)]GlcNAc(b1-2)Man(a1-3)[Gal(a1-3)Gal(b1-4)[Fuc(a1-3)]GlcNAc(b1-2)Man(a1-6)]Man(b1-4)GlcNAc(b1-4)GlcNAc
Procedure, shortened: as §1

Gal(a1-3)GalNAc = target: Gal(a1-3)GalNAc
Procedure, shortened: as §1

[7] = target: Gal(a1-3)[Gal(a1-4)]Gal(b1-4)GlcNAc
Procedure, shortened: as §1

[8] = target: Gal(a1-4)Gal(b1-3)GlcNAc(b1-2)Man(a1-3)[Gal(a1-4)Gal(b1-3)GlcNAc(b1-2)Man(a1-6)]Man(b1-4)GlcNAc(b1-4)GlcNAc
Procedure, shortened: as §1

Gal(a1-4)Gal(b1-4)Glc = target: Gal(a1-4)Gal(b1-4)Glc
Procedure, shortened: as §1

Gal(a1-4)Gal(b1-4)GlcNAc = target: Gal(a1-4)Gal(b1-4)GlcNAc
Procedure, shortened: as §1

[9] = target: Gal(a1-4)Gal(b1-4)GlcNAc(b1-2)Man(a1-3)[Gal(a1-4)Gal(b1-4)GlcNAc(b1-2)Man(a1-6)]Man(b1-4)GlcNAc(b1-4)GlcNAc
Procedure, shortened: as §1

[10] = target: Gal(a1-4)Gal(b1-4)GlcNAc(b1-3)Gal(b1-4)Glc
Procedure, shortened: as §1

Gal(a1-4)GlcNAc = target: Gal(a1-4)GlcNAc
Procedure, shortened: as §1

Gal(a1-6)Glc = target: Gal(a1-6)Glc
Procedure, shortened: as §1

Gal(b1-2)Gal = target: Gal(b1-2)Gal
Procedure, shortened: as §1

Gal(b1-3)Gal = target: Gal(b1-3)Gal
Procedure, shortened: as §1

Gal(b1-3)Gal(b1-4)GlcNAc = target: Gal(b1-3)Gal(b1-4)GlcNAc
Procedure, shortened: as §1

Gal(b1-3)GalNAc = target: Gal(b1-3)GalNAc
Procedure, shortened: as §1

[11] = target: Gal(b1-3)GalNAc(a1-3)[Fuc(a1-2)]Gal(b1-4)Glc
Procedure, shortened: as §1

[12] = target: Gal(b1-3)GalNAc(a1-3)[Fuc(a1-2)]Gal(b1-4)GlcNAc
Procedure, shortened: as §1

Gal(b1-3)GalNAc(b1-3)Gal = target: Gal(b1-3)GalNAc(b1-3)Gal
Procedure, shortened: as §1

[13] = target: Gal(b1-3)GalNAc(b1-3)Gal(a1-4)Gal(b1-4)Glc
Procedure, shortened: as §1

[14] = target: Gal(b1-3)GalNAc(b1-4)Gal(b1-4)Glc
Procedure, shortened: as §1

[15] = target: Gal(b1-3)GalNAc(b1-4)[Neu5Ac(a2-3)]Gal(b1-4)Glc
Procedure, shortened: as §1

Gal(b1-3)GlcNAc = target: Gal(b1-3)GlcNAc
Procedure, shortened: as §1

[16] = target: Gal(b1-3)GlcNAc(a1-3)Gal(b1-4)GlcNAc
Procedure, shortened: as §1

[17] = target: Gal(b1-3)GlcNAc(a1-6)Gal(b1-4)GlcNAc
Procedure, shortened: as §1

Gal(b1-3)GlcNAc(b1-2)Man = target: Gal(b1-3)GlcNAc(b1-2)Man
Procedure, shortened: as §1

[18] = target: Gal(b1-3)GlcNAc(b1-2)Man(a1-3)[Gal(b1-3)GlcNAc(b1-2)Man(a1-6)]Man(b1-4)GlcNAc(b1-4)GlcNAc
Procedure, shortened: as §1

[19] = target: Gal(b1-3)GlcNAc(b1-2)Man(a1-3)[Gal(b1-3)GlcNAc(b1-2)Man(a1-6)]Man(b1-4)GlcNAc(b1-4)[Fuc(a1-6)]GlcNAc
Procedure, shortened: as §1

[20] = target: Gal(b1-3)GlcNAc(b1-2)Man(a1-3)[GlcNAc(b1-4)][Gal(b1-3)GlcNAc(b1-2)Man(a1-6)]Man(b1-4)GlcNAc(b1-4)GlcNAc
Procedure, shortened: as §1

[21] = target: Gal(b1-3)GlcNAc(b1-2)[Gal(b1-3)GlcNAc(b1-6)]Man(a1-6)[Gal(b1-3)GlcNAc(b1-2)Man(a1-3)]Man(b1-4)GlcNAc(b1-4)GlcNAc
Procedure, shortened: as §1

[22] = target: Gal(b1-3)GlcNAc(b1-3)Gal(b1-3)GlcNAc
Procedure, shortened: as §1

[23] = target: Gal(b1-3)GlcNAc(b1-3)Gal(b1-4)Glc
Procedure, shortened: as §1

[24] = target: Gal(b1-3)GlcNAc(b1-3)Gal(b1-4)GlcNAc
Procedure, shortened: as §1

[25] = target: Gal(b1-3)GlcNAc(b1-3)Gal(b1-4)GlcNAc(b1-2)Man(a1-3)[Gal(b1-3)GlcNAc(b1-3)Gal(b1-4)GlcNAc(b1-2)Man(a1-6)]Man(b1-4)GlcNAc(b1-4)GlcNAc
Procedure, shortened: as §1

B1: GS7807Q-bfa-507-19-507 (Bacteroides fragilis) (protein)
chain: ASCNKFDDLNTNPDAATKVTAPMLATKLILNITQQGSAKNFVYHSMLSKQIAWSENASDEQYNLFGRTDFDGYTILTNCQKMVDAANEGDKDSYAALAKFMKAYKLFYKSLEVGDIPYSDALKGEEGVQKPKYDTQKEVMRQVLEDLEEAYTLFSSGSDFDGDPIFGGDTENWKKTVVAFELKVLTHLCKKDTDADLKVKERFARLVSSGSLMTSNADNFQLVYSNKAGQLYPFYYTQNKHSDYLMMSSVIIDNLKKFNDYRMFYYASPAKAQTDKGIKDSEWDAYLSIDPSDSYSNISVLYGKGEFCLANLRYTRVPEGEPLMRLSYAEQNFILAEGAVRGWISEDASTYYKKGIEASMNFIADNTPDKEEYTHGRTITQEYIQEYLAQPVIQLSGDKEKDLEMILLQRYLASFLQHPYDAYYDYRRTGYPVLPINPSTNLNTEKNKIPTRWMYPEAEFSYNPDNANEAVQRQYNGSDDVNKLMWILQ
In the case of B1, the “glycan array binding signal (z-score)” value [1] is reported as -0.427, the “glycan array binding signal (z-score)” value [2] is reported as 3.33 and the “glycan array binding signal (z-score)” value [3] is reported as -0.044. The “glycan array binding signal (z-score)” value [4] was -0.567, the “glycan array binding signal (z-score)” value [5] was 0.431 and the “glycan array binding signal (z-score)” value [6] was 0.944. The “glycan array binding signal (z-score)” value (Gal(a1-3)GalNAc) was -0.197, the “glycan array binding signal (z-score)” value [7] was 0.361 and the “glycan array binding signal (z-score)” value [8] was 1.5. The “glycan array binding signal (z-score)” value (Gal(a1-4)Gal(b1-4)Glc) was -0.026, the “glycan array binding signal (z-score)” value (Gal(a1-4)Gal(b1-4)GlcNAc) was 0.712 and the “glycan array binding signal (z-score)” value [9] was 1.59. For the same binder, the “glycan array binding signal (z-score)” value [10] was -0.723, the “glycan array binding signal (z-score)” value (Gal(a1-4)GlcNAc) was -0.18 and the “glycan array binding signal (z-score)” value (Gal(a1-6)Glc) was -1. The “glycan array binding signal (z-score)” value (Gal(b1-2)Gal) was 0.131, the “glycan array binding signal (z-score)” value (Gal(b1-3)Gal) was -0.945 and the “glycan array binding signal (z-score)” value (Gal(b1-3)Gal(b1-4)GlcNAc) was 0.505. The “glycan array binding signal (z-score)” value (Gal(b1-3)GalNAc) was -0.161, the “glycan array binding signal (z-score)” value [11] was -0.121 and the “glycan array binding signal (z-score)” value [12] was -0.635. The “glycan array binding signal (z-score)” value (Gal(b1-3)GalNAc(b1-3)Gal) was 0.094, the “glycan array binding signal (z-score)” value [13] was 0.089 and the “glycan array binding signal (z-score)” value [14] was 0.978. The “glycan array binding signal (z-score)” value [15] was 0.654, the “glycan array binding signal (z-score)” value (Gal(b1-3)GlcNAc) was -0.667 and the “glycan array binding signal (z-score)” value [16] was -0.274. The “glycan array binding signal (z-score)” value [17] was -0.771, the “glycan array binding signal (z-score)” value (Gal(b1-3)GlcNAc(b1-2)Man) was -0.443 and the “glycan array binding signal (z-score)” value [18] was 2.5. For the same binder, the “glycan array binding signal (z-score)” value [19] was 0.581, the “glycan array binding signal (z-score)” value [20] was 2.19 and the “glycan array binding signal (z-score)” value [21] was 0.94. The “glycan array binding signal (z-score)” value [22] was -0.954, the “glycan array binding signal (z-score)” value [23] was -0.727 and the “glycan array binding signal (z-score)” value [24] was -0.608. For the same binder, the “glycan array binding signal (z-score)” value [25] was -0.098.
